Laboratory results reported in the supplement of paper PMC11264405.

Columns and labels:
Experiment in all cases: minimum inhibitory concentration
linezolid = compound: CC(=O)NC[C@H]1CN(c2ccc(N3CCOCC3)c(F)c2)C(=O)O1 [linezolid]
tigecycline = compound: CN(C)c1cc(NC(=O)CNC(C)(C)C)c(O)c2c1C[C@H]1C[C@H]3[C@H](N(C)C)C(O)=C(C(N)=O)C(=O)[C@@]3(O)C(O)=C1C2=O [tigecycline]
imipenem = compound: C[C@@H](O)[C@H]1C(=O)N2C(C(=O)O)=C(SCCNC=N)C[C@H]12 [imipenem]
vancomycin = compound: CN[C@H](CC(C)C)C(=O)N[C@H]1C(=O)N[C@@H](CC(N)=O)C(=O)N[C@H]2C(=O)N[C@H]3C(=O)N[C@H](C(=O)N[C@H](C(=O)O)c4cc(O)cc(O)c4-c4cc3ccc4O)[C@H](O)c3ccc(c(Cl)c3)Oc3cc2cc(c3O[C@@H]2O[C@H](CO)[C@@H](O)[C@H](O)[C@H]2O[C@H]2C[C@](C)(N)[C@H](O)[C@H](C)O2)Oc2ccc(cc2Cl)[C@H]1O [vancomycin]
meropenem = compound: C[C@@H](O)[C@H]1C(=O)N2C(C(=O)O)=C(S[C@@H]3CN[C@H](C(=O)N(C)C)C3)[C@H](C)[C@H]12 [meropenem]
metronidazole = compound: Cc1ncc([N+](=O)[O-])n1CCO [metronidazole]
fidaxomicin = compound: CCc1c(Cl)c(O)c(Cl)c(O)c1C(=O)O[C@H]1[C@H](O)[C@H](OC)[C@H](OC/C2=C\C=C\C[C@H](O)/C(C)=C/[C@H](CC)[C@@H](O[C@@H]3OC(C)(C)[C@@H](OC(=O)C(C)C)[C@H](O)[C@@H]3O)/C(C)=C/C(C)=C/C[C@@H]([C@@H](C)O)OC2=O)O[C@@H]1C [fidaxomicin]
clindamycin = compound: CCC[C@@H]1C[C@@H](C(=O)N[C@@H]([C@H]2O[C@H](SC)[C@H](O)[C@@H](O)[C@H]2O)[C@H](C)Cl)N(C)C1 [clindamycin]
rifampicin = compound: CO[C@H]1/C=C/O[C@@]2(C)Oc3c(C)c(O)c4c(O)c(c(/C=N/N5CCN(C)CC5)c(O)c4c3C2=O)NC(=O)/C(C)=C\C=C\[C@H](C)[C@H](O)[C@@H](C)[C@@H](O)[C@@H](C)[C@H](OC(C)=O)[C@@H]1C [rifampicin]

Test System | minimum inhibitory concentration (linezolid) [µg/mL] | minimum inhibitory concentration (tigecycline) [µg/mL] | minimum inhibitory concentration (imipenem) [µg/mL] | minimum inhibitory concentration (vancomycin) [µg/mL] | minimum inhibitory concentration (meropenem) [µg/mL] | minimum inhibitory concentration (metronidazole) [µg/mL] | minimum inhibitory concentration (fidaxomicin) [µg/mL] | minimum inhibitory concentration (clindamycin) [µg/mL] | minimum inhibitory concentration (rifampicin) [µg/mL]
Clostridioides difficile PCR ribotype 013 isolate #298 (European region: West, country: France, isolate source: Animal, ribotype: 013) | 2 | < 0.03 | 1 | 1 | 4 | < 0.125 | 0.004 | 16 | < 0.001
Clostridioides difficile PCR ribotype 014 isolate #64 (European region: East, country: Poland, isolate source: Human, ribotype: 014) | 2 | < 0.03 | 2 | 0.5 | 4 | 0.25 | 0.03 | 16 | < 0.001
Clostridioides difficile PCR ribotype 014 isolate #65 (European region: West, country: France, isolate source: Human, ribotype: 014) | 2 | < 0.03 | 2 | 0.5 | 2 | < 0.125 | 0.015 | 8 | < 0.001
Clostridioides difficile PCR ribotype 014 isolate #66 (European region: North, country: UK, isolate source: Human, ribotype: 014) | 2 | < 0.03 | 2 | 0.5 | 4 | 0.25 | 0.125 | 8 | < 0.001
Clostridioides difficile PCR ribotype 014 isolate #67 (European region: North, country: UK, isolate source: Human, ribotype: 014) | 2 | 0.06 | 4 | 0.5 | 2 | 0.25 | 0.06 | 8 | < 0.001
Clostridioides difficile PCR ribotype 014 isolate #68 (European region: North, country: UK, isolate source: Human, ribotype: 014) | 2 | 0.06 | 2 | 0.5 | 4 | < 0.125 | 0.03 | 8 | < 0.001
Clostridioides difficile PCR ribotype 014 isolate #70 (European region: North, country: UK, isolate source: Human, ribotype: 014) | 2 | 0.06 | 2 | 0.5 | 2 | < 0.125 | 0.03 | 16 | < 0.001
Clostridioides difficile PCR ribotype 014 isolate #71 (European region: West, country: Netherlands, isolate source: Human, ribotype: 014) | 2 | < 0.03 | 1 | 0.5 | 2 | 0.25 | 0.03 | 8 | < 0.001
Clostridioides difficile PCR ribotype 014 isolate #73 (European region: East, country: Poland, isolate source: Human, ribotype: 014) | 2 | < 0.03 | 2 | 0.5 | 4 | 0.25 | 0.004 | 8 | < 0.001
Clostridioides difficile PCR ribotype 014 isolate #76 (European region: West, country: France, isolate source: Human, ribotype: 014) | 2 | < 0.03 | 2 | 1 | 2 | 0.25 | 0.06 | 16 | < 0.001
Clostridioides difficile PCR ribotype 014 isolate #79 (European region: West, country: Belgium, isolate source: Human, ribotype: 014) | 2 | 0.125 | 1 | 0.5 | 2 | < 0.125 | 0.008 | 4 | < 0.001
Clostridioides difficile PCR ribotype 014 isolate #80 (European region: West, country: Belgium, isolate source: Human, ribotype: 014) | 2 | 0.125 | 1 | 1 | 2 | < 0.125 | 0.03 | 2 | < 0.001
Clostridioides difficile PCR ribotype 014 isolate #81 (European region: West, country: Belgium, isolate source: Human, ribotype: 014) | 2 | 0.06 | 1 | 0.5 | 2 | < 0.125 | 0.03 | 8 | < 0.001
Clostridioides difficile PCR ribotype 014 isolate #299 (European region: West, country: Austria, isolate source: Animal, ribotype: 014) | 2 | 0.06 | 2 | 1 | 4 | < 0.125 | 0.03 | 8 | < 0.001
Clostridioides difficile PCR ribotype 014 isolate #300 (European region: East, country: Romania, isolate source: Animal, ribotype: 014) | 2 | < 0.03 | 2 | 1 | 2 | < 0.125 | 0.06 | 8 | < 0.001
Clostridioides difficile PCR ribotype 014 isolate #301 (European region: West, country: Netherlands, isolate source: Animal, ribotype: 014) | 2 | < 0.03 | < 0.125 | 0.5 | 4 | < 0.125 | 0.06 | 16 | < 0.001
Clostridioides difficile PCR ribotype 014 isolate #302 (European region: West, country: France, isolate source: Animal, ribotype: 014) | 2 | < 0.03 | 2 | 1 | 4 | 0.25 | 0.06 | 16 | < 0.001
Clostridioides difficile PCR ribotype 014 isolate #303 (European region: West, country: France, isolate source: Animal, ribotype: 014) | 2 | < 0.03 | 1 | 0.5 | 4 | 0.25 | 0.06 | 16 | < 0.001
Clostridioides difficile PCR ribotype 015 isolate #82 (European region: North, country: UK, isolate source: Human, ribotype: 015) | 2 | < 0.03 | 2 | 1 | 2 | 0.25 | 0.008 | 8 | < 0.001
Clostridioides difficile PCR ribotype 015 isolate #83 (European region: North, country: UK, isolate source: Human, ribotype: 015) | 2 | < 0.03 | 2 | < 0.125 | 8 | < 0.125 | 0.06 | 16 | > 32
Clostridioides difficile PCR ribotype 015 isolate #84 (European region: North, country: UK, isolate source: Human, ribotype: 015) | 2 | < 0.03 | 4 | 0.25 | 4 | < 0.125 | 0.06 | < 0.125 | < 0.001
Clostridioides difficile PCR ribotype 015 isolate #85 (European region: West, country: France, isolate source: Human, ribotype: 015) | 2 | < 0.03 | 2 | 0.5 | 2 | < 0.125 | 0.06 | 16 | < 0.001
Clostridioides difficile PCR ribotype 015 isolate #86 (European region: North, country: UK, isolate source: Human, ribotype: 015) | 2 | 0.06 | 2 | 1 | 2 | < 0.125 | 0.03 | 0.5 | < 0.001

Part of the list above, limited to minimum inhibitory concentration (rifampicin) [µg/mL], minimum inhibitory concentration (vancomycin) [µg/mL] and minimum inhibitory concentration (linezolid) [µg/mL].

| Test System | minimum inhibitory concentration (rifampicin) [µg/mL] | minimum inhibitory concentration (vancomycin) [µg/mL] | minimum inhibitory concentration (linezolid) [µg/mL] |
| --- | --- | --- | --- |
| Clostridioides difficile PCR ribotype 014 isolate #300 (European region: East, country: Romania, isolate source: Animal, ribotype: 014) | < 0.001 | 1 | 2 |
| Clostridioides difficile PCR ribotype 014 isolate #301 (European region: West, country: Netherlands, isolate source: Animal, ribotype: 014) | < 0.001 | 0.5 | 2 |
